Screen size: about 2,100 compounds; about 260 (12%) were called active. This list was built around the results that the source calls inconclusive (neither active nor inactive); the mix of calls is not that of the screen. Calls come from the whole dose curve; as a rule, active = well fitted cell-killing curve with a large enough effect; inconclusive = small, poorly fitted or top-dose-only effect, or effect the other way; inactive = flat fitted curve, though single readings scatter. Potencies of inconclusive entries are doubtful fits and often do not repeat.
Test: Viability Counterscreen for Confirmatory qHTS for Inhibitors of ATXN expression; note: nearly all actives have a fitted effect of over 50% in size
Details: HEK-293 ATXN2-luc cells viability, CellTiter-Fluor, 24 h; activity change, negative = cytotoxicity: at 57.5 µM (top of the series)
Outline: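 Luminescence read-out (SteadyGlo, 5 min) followed a 30 min Gly-Phe-AFC (25 uM final) viability fluorescence read. ATXN2-luciferase reporter cells were exposed 24 h to a dilution series. Medium-only wells served as the 100% inhibition reference.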
For `COc1cc2c(cc1OC)C1C(=O)c3ccc4c(c3OC1CO2)CC(C(C)C)O4` (stereo not drawn), the Potency was inconclusive: 31.6 µM [cytotoxic, partial curve, poor fit].
For `Cc1ccc(N2C(=O)NC(=O)/C(=C\c3cc(C)n(-c4sc5c(c4C#N)CCCC5)c3C)C2=O)cc1`, the Potency was inconclusive: 17.8 µM [cytotoxic, partial curve].
For `CCCCCn1c(NC(=O)c2ccco2)c(C(=O)OCC)c2nc3ccccc3nc21`, the Potency was active: 28.2 µM.
With `COc1cc(C(=O)NN=Cc2ccc(N(CCCl)CCCl)cc2)cc(OC)c1OC` the Potency was inconclusive: 7.94 µM [cytotoxic, full curve, poor fit].
For `N#Cc1cn(C2OC(CO)C(O)C2O)c2ncnc(N)c12` (stereo not drawn), the activity change, negative = cytotoxicity was inactive: -24.1% [at 11.5 µM].
For `Cc1nc2ccccc2c(=O)n1/N=C/c1cc(Br)cc(Br)c1O`, the Potency was inconclusive: 39.8 µM [cytotoxic, single point].
With `Cc1ccc(/C=C2\C(=O)NC(=S)N(c3ccccc3F)C2=O)s1` the Potency was active: 8.91 µM.
With `COc1cc2nc(CN3CC=C(c4ccccc4)CC3)[nH]c(=O)c2cc1OC` the Potency was inconclusive: 7.08 µM [cytotoxic, partial curve, poor fit].
With `O=C1NC(=O)C2(CCCc3ccc(N(CCCl)CCCl)cc32)N1` (stereo not drawn) the Potency was inconclusive: 28.2 µM [cytotoxic, partial curve].
For `C=CCCC[C@@H]1OC(=O)CNC(=O)C([C@@H](C)CC)NC(=O)[C@@H]2CCCN2C(=O)C([C@@H](C)CC)OC(=O)[C@H](Cc2ccccc2)N(C)C(=O)[C@H](C(C)C)NC(=O)C1(C)C` (stereo partly drawn), the Potency was active: 3.16 µM.
With `C[C@@H]1C[C@@H]([C@H](O)CC2CC(=O)NC(=O)C2)C(=O)[C@@H](C)C1` the Potency was inconclusive: 5.01 µM [cytotoxic, partial curve].
With `CCCCCn1c(=O)c(C(=O)NCc2ccncc2)c(O)c2ccccc21` the Potency was inconclusive: 28.2 µM [cytotoxic, partial curve].
With `COc1cc2c(cc1OC)[C@@H]1C(=O)c3ccc4c(c3O[C@@H]1CO2)C[C@H](C(C)C)O4` the Potency was inconclusive: 14.1 µM [cytotoxic, partial curve].
With `Clc1ccc2[nH]c3c(c2c1)CCNC3` the Potency was inconclusive: 3.16 µM [cytotoxic, single point].
In the case of `C[C@H]1CCC[C@@H](O)CCC/C=C/c2cc(O)cc(O)c2C(=O)O1`, the Potency is reported as inconclusive: 2.82 µM [cytotoxic, partial curve].
With `CC12CCC3C(CCC4(O)CC(O)CCC34C=NO)C1(O)CCC2C1=COC(=O)C1` (stereo not drawn) the Potency was inconclusive: 0.316 µM [cytotoxic, full curve].
With `O=[N+]([O-])c1ccc(C(c2ccc([N+](=O)[O-])cc2)c2ccc([N+](=O)[O-])cc2)cc1` the Potency was inconclusive: 35.5 µM [cytotoxic, single point].
For `CC(=NCCc1c[nH]c2ccccc12)c1c(O)n(Cc2ccccc2)c(=O)[nH]c1=O`, the “activity change, negative = cytotoxicity” value was inactive: -15%.
For `CCC1(OC(=O)CN)C(=O)OCc2c1cc1n(c2=O)Cc2cc3ccccc3nc2-1` (stereo not drawn), the activity change, negative = cytotoxicity was inactive: 0.438% [at 11.5 µM].
For `CC12CCC(O)CC1CCC1C2CCC2(C)C(C3=CC(=O)OC3)CCC12O` (stereo not drawn), the Potency was inconclusive: 0.891 µM [cytotoxic, full curve].
For `CC(=O)O[C@H]1[C@H]2O[C@]23[C@@H]2CC[C@]4(O)C[C@@H](O)CC[C@]4(C)C2CC[C@]3(C)[C@H]1c1ccc(=O)oc1` (stereo partly drawn), the Potency was inconclusive: 0.0251 µM [cytotoxic, full curve, poor fit].
In the case of `NC(=O)c1c(Br)n(C2OC(CO)C(O)C2O)c2ncnc(N)c12` (stereo not drawn), the Potency is reported as inconclusive: 3.55 µM [cytotoxic, partial curve].
In the case of `CNCC(O)c1cc(OCc2ccccc2)c(OCc2ccccc2)cc1F` (stereo not drawn), the Potency is reported as inconclusive: 39.8 µM [cytotoxic, single point].
In the case of `CCOc1cc(CNCCc2c[nH]c3ccccc23)cc(Cl)c1OC`, the Potency is reported as inconclusive: 39.8 µM [cytotoxic, single point].
For `CC(C)CCNC(=O)c1c(N)n(Cc2ccc3c(c2)OCO3)c2nc3ccccc3nc12`, the “activity change, negative = cytotoxicity” value was inactive: -11.5%.
For `O=C(NN=Cc1ccc(N(CCCl)CCCl)cc1)c1cc(=O)[nH]c(=O)[nH]1`, the “activity change, negative = cytotoxicity” value was inactive: -23.7%.
With `CCOC(=O)[C@]12Cc3ccsc3[C@H]1N(Cc1ccccc1)C(=O)c1ccccc12` the activity change, negative = cytotoxicity was inactive: -19.3% [at 11.5 µM].
With `COc1ccc(O)c2c(=O)c3c(OC)cc4c(c3oc12)C1C=COC1O4` (stereo not drawn) the Potency was inconclusive: 25.1 µM [cytotoxic, partial curve, poor fit].
With `COc1cc2c(cc1OC)-c1c3c(cc4c1[C@@H](C2)N(C)CC4)OCO3` the Potency was inconclusive: 3.16 µM [cytotoxic, partial curve, poor fit].
With `O=c1[nH]c2ccccc2n1C1CCN(C(CCc2ccccc2)c2nnnn2C2CCCC2)CC1` (stereo not drawn) the Potency was active: 22.4 µM.
With `C[C@H]1[C@@H](OS(=O)(=O)O)C[C@@H]2C[C@H]([C@@H](O)c3cc(=O)[nH]c(=O)[nH]3)NC3=NC[C@H]1N32` the Potency was inconclusive: 10 µM [cytotoxic, partial curve].
In the case of `CCCCCCC(=O)N/N=C/c1c(O)n(CCc2ccccc2)c(=O)[nH]c1=O`, the Potency is reported as inconclusive: 28.2 µM [cytotoxic, partial curve].
In the case of `COc1ccc(CC2C(=O)NC(C)C(=O)N(C)C3C(=O)N(C)C(Cc4ccc(O)c(c4)Oc4ccc(cc4)C3O)C(=O)NC(C)C(=O)NC(C)C(=O)N2C)cc1` (stereo not drawn), the activity change, negative = cytotoxicity is reported as inconclusive: -60.6%.

— PubChem BioAssay AID1745850 (National Center for Advancing Translational Sciences (NCATS), 2022)
Potency is the fitted concentration of half-maximal effect.
